From paper doi:10.1101/2023.10.01.560355 come the findings set out here.

Sequences of proteins named here, by UniProt entry; tags and fusion partners are left off.
UniProt Q62093: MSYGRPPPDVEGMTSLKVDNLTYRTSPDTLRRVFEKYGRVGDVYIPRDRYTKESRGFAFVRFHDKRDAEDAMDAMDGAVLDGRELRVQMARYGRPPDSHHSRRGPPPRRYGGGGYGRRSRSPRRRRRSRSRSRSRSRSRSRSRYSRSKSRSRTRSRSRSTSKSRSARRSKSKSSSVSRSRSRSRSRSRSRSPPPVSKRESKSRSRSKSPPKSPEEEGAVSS

No constants are given. Whether binding was seen depends on the method and setting. In cells and extracts the contact can be indirect. A yes stands for co-enrichment or nearness to the bait. Other partners may have been found. Tags and fused reporters may be left off the sequences shown.

For this experiment, the target named is T1, FBXO24-HA (F-Box Protein 24 with a C-terminal HA epitope tag, from Fbxo24-HA-tagged transgenic mice) (mouse) (UniProt Q9D417).
T1 sequence: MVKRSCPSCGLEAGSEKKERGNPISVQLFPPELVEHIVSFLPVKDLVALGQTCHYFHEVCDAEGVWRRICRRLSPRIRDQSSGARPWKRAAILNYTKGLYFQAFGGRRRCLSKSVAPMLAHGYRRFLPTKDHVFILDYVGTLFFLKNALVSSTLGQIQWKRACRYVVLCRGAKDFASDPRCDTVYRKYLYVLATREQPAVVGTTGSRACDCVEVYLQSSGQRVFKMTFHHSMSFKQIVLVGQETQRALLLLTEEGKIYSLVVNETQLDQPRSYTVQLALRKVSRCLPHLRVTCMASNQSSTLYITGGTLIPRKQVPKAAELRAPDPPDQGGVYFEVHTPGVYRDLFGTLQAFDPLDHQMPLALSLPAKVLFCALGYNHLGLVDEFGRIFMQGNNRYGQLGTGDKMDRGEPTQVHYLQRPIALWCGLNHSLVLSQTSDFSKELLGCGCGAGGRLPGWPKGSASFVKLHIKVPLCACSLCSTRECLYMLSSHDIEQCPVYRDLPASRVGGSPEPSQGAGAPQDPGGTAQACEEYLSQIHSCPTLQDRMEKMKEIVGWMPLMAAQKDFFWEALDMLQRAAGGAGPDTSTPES
As to the kind of experiment: affinity purification with mass spectrometry.

With SRSF2 (from UniProt Q62093 1-221), the binding result was “binds”.

B1: SRSF3 (protein, UniProt P84104 1-164)
chain: MHRDSCPLDCKVYVGNLGNNGNKTELERAFGYYGPLRSVWVARNPPGFAFVEFEDPRDAADAVRELDGRTLCGCRVRVELSNGEKRSRNRGPPPSWGRRPRDDYRRRSPPPRRRSPRRRSFSRSRSRSLSRDRRRERSLSRERNHKPSRSFSRSRSRSRSNERK
Consider B1, for which the binding entry is reported as “binds”.
